Here are results for three molecules from publication PMC2808252.

No constants are given. Whether binding was seen depends on the method and setting. In cells and extracts the contact can be indirect. Some binding calls cover weakened binding; strength is not graded here. For part of these data: Where a sequence is shown, tags or fusion partners need not be part of it.

One experiment has as its target T1, Dysbindin-V5 (human) (UniProt Q96EV8).
T1 sequence: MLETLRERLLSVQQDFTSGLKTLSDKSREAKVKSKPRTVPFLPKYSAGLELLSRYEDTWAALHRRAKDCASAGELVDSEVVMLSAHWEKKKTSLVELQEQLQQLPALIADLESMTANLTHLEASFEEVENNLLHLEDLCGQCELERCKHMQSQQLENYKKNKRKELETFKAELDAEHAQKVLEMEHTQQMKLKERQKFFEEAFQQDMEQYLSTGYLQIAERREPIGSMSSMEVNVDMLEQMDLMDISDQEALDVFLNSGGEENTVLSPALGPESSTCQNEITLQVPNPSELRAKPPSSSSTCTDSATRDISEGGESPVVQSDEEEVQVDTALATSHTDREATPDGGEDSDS
Put plainly: co-IP; lysate of HEK293T cells transfected with Dysbindin-V5; IP with anti-V5 (control IgG beside it), Western blot with anti-NF-YB; lysis buffer 20 mM Tris-HCl pH 7.8, 0.2% NP-40, 1 mM EDTA, 150 mM NaCl; protein G Sepharose, 1 h at 4°C.

For experiment [1], the target named is T2, Dysbindin (endogenous, SH-SY5Y cells) (human (endogenous in SH-SY5Y)) (UniProt Q96EV8).
T2 sequence: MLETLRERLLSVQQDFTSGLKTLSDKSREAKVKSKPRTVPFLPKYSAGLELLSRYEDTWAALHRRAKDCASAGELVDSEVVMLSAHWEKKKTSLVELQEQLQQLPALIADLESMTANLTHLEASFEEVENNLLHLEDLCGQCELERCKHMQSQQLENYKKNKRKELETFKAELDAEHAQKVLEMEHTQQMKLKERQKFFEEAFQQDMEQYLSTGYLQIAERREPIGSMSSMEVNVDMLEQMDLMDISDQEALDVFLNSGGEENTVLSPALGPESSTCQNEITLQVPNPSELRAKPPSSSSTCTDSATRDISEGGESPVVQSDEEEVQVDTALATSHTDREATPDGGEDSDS
Put plainly: co-IP; SH-SY5Y lysate, both proteins endogenous; IP with anti-Dysbindin and blot with anti-NF-YB, and IP with anti-NF-YB and blot with anti-Dysbindin; nonspecific rabbit IgG as control; lysis buffer 20 mM Tris-HCl pH 7.8, 0.2% NP-40, 1 mM EDTA, 150 mM NaCl; 1 h at 4°C.

Experiment [2] deals with T3, Dysbindin (endogenous, adult mouse brain) (mouse (endogenous in adult mouse brain)) (UniProt Q91WZ8).
T3 sequence: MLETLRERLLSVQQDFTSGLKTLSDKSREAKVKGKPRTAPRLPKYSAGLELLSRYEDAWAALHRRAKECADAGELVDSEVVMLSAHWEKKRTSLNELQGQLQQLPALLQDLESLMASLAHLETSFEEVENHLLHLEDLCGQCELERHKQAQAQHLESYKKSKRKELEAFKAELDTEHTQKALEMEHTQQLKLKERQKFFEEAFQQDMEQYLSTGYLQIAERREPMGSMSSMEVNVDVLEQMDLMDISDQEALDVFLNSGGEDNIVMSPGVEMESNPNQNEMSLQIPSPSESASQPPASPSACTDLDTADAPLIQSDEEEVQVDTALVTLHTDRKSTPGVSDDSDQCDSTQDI
Briefly: co-IP; data not shown: adult mouse brain lysates, endogenous proteins.

B1: NF-YB (endogenous, HEK293T cells) (protein, UniProt P25208 1-207)
chain: MTMDGDSSTTDASQLGISADYIGGSHYVIQPHDDTEDSMNDHEDTNGSKESFREQDIYLPIANVARIMKNAIPQTGKIAKDAKECVQECVSEFISFITSEASERCHQEKRKTINGEDILFAMSTLGFDSYVEPLKLYLQKFREAMKGEKGIGGAVTATDGLSEELTEEAFTNQLPAGLITTDGQQQNVMVYTTSYQQISGVQQIQFS
As for B1, in the experiment with Dysbindin-V5 (human), the binding result was “binds”.

B2: NF-YB (endogenous, SH-SY5Y cells) (protein, UniProt P25208 1-207)
chain: MTMDGDSSTTDASQLGISADYIGGSHYVIQPHDDTEDSMNDHEDTNGSKESFREQDIYLPIANVARIMKNAIPQTGKIAKDAKECVQECVSEFISFITSEASERCHQEKRKTINGEDILFAMSTLGFDSYVEPLKLYLQKFREAMKGEKGIGGAVTATDGLSEELTEEAFTNQLPAGLITTDGQQQNVMVYTTSYQQISGVQQIQFS
Regarding B2, the binding result in experiment [1] is “binds”.

B3: NF-YB (endogenous, adult mouse brain) (protein, UniProt P63139 1-207)
chain: MTMDGDSSTTDASQLGISADYIGGSHYVIQPHDDTEDSMNDHEDTNGSKESFREQDIYLPIANVARIMKNAIPQTGKIAKDAKECVQECVSEFISFITSEASERCHQEKRKTINGEDILFAMSTLGFDSYVEPLKLYLQKFREAMKGEKGIGGAVSATDGLSEELTEEAFTNQLPAGLITADGQQQNVMVYTTSYQQISGVQQIQFS
On to B3, for which the binding result in experiment [2] is “binds”.
